Data on four molecules can be found in PMC12238589.

By UniProt entry, the sequences of proteins in these tests, tags left out. Where a name states a change or a piece, a line headed by the entry shows the natural chain unless it says otherwise.
UniProt Q5S007: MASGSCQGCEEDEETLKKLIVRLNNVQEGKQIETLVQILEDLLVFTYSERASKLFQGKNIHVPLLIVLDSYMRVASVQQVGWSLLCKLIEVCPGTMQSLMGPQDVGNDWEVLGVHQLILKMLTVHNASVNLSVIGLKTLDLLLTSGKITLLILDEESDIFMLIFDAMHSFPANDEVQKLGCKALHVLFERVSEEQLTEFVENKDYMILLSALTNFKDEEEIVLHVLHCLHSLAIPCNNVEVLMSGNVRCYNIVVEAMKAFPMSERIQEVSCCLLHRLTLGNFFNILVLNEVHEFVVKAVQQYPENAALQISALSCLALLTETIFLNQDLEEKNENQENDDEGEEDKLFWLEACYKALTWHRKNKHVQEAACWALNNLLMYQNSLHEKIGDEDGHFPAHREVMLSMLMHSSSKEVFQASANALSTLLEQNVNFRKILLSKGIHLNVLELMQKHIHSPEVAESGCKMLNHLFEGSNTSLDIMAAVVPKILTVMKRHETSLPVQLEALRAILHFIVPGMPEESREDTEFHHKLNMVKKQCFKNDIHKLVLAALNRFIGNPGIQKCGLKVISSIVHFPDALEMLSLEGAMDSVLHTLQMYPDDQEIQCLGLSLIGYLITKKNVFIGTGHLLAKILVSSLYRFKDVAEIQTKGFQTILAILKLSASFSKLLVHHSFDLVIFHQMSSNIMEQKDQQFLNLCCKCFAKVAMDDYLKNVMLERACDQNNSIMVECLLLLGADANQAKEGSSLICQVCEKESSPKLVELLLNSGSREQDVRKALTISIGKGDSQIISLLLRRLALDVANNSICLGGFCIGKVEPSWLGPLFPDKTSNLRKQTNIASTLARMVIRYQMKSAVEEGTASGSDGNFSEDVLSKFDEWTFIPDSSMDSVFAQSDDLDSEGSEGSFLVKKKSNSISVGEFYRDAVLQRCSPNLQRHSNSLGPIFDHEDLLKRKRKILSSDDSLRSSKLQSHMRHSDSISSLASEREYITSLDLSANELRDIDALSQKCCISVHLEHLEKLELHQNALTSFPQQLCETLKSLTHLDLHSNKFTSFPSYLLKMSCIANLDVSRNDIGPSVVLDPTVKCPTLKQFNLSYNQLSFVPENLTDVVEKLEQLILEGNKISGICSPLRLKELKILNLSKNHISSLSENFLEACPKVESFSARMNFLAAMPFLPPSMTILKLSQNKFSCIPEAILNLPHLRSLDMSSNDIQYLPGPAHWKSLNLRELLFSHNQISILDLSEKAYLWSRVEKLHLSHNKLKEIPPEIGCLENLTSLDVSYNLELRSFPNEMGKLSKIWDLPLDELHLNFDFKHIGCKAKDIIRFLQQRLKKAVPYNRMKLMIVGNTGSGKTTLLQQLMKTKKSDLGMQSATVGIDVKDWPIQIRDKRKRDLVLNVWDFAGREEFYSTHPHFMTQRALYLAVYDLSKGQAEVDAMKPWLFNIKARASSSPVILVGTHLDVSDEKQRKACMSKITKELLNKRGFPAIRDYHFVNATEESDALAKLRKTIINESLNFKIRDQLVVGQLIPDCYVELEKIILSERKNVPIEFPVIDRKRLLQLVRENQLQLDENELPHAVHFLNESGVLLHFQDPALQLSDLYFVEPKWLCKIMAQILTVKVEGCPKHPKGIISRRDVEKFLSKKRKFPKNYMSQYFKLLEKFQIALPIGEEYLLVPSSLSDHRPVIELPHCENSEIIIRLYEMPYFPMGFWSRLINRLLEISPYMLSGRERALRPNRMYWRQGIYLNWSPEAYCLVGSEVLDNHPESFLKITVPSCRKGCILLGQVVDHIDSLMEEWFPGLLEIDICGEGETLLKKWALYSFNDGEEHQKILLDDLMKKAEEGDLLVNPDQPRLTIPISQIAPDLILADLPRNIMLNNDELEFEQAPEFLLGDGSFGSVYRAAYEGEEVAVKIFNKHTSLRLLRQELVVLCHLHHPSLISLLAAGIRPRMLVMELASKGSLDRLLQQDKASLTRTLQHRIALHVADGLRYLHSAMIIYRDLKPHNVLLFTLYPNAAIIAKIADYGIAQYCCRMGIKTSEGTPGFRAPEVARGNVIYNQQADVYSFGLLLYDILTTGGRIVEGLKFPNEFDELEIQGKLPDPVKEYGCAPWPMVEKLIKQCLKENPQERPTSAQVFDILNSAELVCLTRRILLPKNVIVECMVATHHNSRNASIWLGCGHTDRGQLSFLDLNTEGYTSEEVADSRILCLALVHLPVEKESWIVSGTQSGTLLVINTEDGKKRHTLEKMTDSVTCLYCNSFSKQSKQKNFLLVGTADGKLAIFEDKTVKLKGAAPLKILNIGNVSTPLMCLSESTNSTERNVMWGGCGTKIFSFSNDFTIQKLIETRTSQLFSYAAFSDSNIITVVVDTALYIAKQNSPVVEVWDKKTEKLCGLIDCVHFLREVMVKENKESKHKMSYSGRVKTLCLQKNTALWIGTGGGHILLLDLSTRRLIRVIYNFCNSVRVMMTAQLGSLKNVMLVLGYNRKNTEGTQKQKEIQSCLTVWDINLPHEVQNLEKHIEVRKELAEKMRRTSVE
UniProt P61006: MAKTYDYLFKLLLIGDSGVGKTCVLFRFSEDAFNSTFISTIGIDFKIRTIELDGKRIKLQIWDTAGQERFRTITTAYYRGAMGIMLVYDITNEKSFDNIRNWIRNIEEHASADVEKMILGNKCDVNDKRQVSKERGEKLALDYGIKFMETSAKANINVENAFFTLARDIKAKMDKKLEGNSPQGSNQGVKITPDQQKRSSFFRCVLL
UniProt P23258: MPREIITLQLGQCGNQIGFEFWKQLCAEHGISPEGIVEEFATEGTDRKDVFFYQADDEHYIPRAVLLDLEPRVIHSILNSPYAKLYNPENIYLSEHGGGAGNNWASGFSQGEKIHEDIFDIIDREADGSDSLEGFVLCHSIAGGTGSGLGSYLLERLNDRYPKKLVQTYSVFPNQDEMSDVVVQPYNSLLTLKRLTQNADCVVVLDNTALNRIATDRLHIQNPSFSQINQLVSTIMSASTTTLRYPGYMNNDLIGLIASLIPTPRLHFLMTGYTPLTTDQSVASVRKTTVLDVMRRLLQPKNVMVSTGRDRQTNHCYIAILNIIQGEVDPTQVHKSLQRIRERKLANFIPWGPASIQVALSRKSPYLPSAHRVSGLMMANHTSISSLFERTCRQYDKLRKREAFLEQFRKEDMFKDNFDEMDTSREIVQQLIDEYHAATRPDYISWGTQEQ
UniProt Q15286: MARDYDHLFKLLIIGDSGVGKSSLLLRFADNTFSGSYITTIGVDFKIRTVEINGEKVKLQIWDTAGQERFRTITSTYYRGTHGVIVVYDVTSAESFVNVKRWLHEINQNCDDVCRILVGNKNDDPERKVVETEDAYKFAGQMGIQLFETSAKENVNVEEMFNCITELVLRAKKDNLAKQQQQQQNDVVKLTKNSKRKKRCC

No constants are given. Whether binding was seen depends on the method and setting. In cells and extracts the contact can be indirect. Here binding means that the protein was enriched with, or labelled near, the bait; the list need not be complete.

In test [1] the target is FLAG-APEX2-WT-LRRK2 (UniProt Q5S007). The test is described as follows: proximity labelling; APEX2 fused N-terminally to LRRK2 in transfected HEK293T cells; 500 µM biotinyl tyramide 30 min, 1 mM H2O2 1 min; biotinylated proteins quantified by whole-cell proteomics (LC-MS/MS); cells with or without MLi2 (250 nM, 30 min); FLAG-APEX2 alone as control.
For test [2], the target named is FLAG-APEX2-G2019S-LRRK2 (UniProt Q5S007). The description is as above.

For the molecule Rab8a (from UniProt P61006 1-207), the binding result in test [1] is “binds”. γ-tubulin (from UniProt P23258): the binding entry in test [2] and in test [1] was “binds” each time.

In the case of Rab35 (from UniProt Q15286 1-201), the binding result in test [2] and in test [1] was “binds” throughout.

B1: Rab7L1 (protein, UniProt O14966 1-203)
chain: MGSRDHLFKVLVVGDAAVGKTSLVQRYSQDSFSKHYKSTVGVDFALKVLQWSDYEIVRLQLWDIAGQERFTSMTRLYYRDASACVIMFDVTNATTFSNSQRWKQDLDSKLTLPNGEPVPCLLLANKCDLSPWAVSRDQIDRFSKENGFTGWTETSVKENKNINEAMRVLIEKMMRNSTEDIMSLSTQGDYINLQTKSSSWSCC
Turning to B1, the binding entry in test [2] and in test [1] was “binds” each time.
